Laboratory results reported in patent US20150353933, “APTAMER AGAINST MIDKINE AND APPLICATIONS THEREOF” (RIBOMIC INC., published 2015).

Biological target: T1, midkine (AP-MK) (Homo sapiens) (UniProt P21741)
T1 sequence (looked up): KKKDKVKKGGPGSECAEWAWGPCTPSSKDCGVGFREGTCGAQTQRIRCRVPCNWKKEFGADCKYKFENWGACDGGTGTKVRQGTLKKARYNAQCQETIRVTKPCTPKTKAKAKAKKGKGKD
Assay: inhibition of the protein
Conditions: 2'-OMe at 1-3 and 38-40; 2'-F at all other pyrimidines; negative control; inhibitory effect significantly small versus 7-1, TNB1 cells; protein in a lysate after overexpression; dose not given here

GCCAUGGUGGUCAACCGUCGGUAUUGCCGCAGUUACUGGC [SEQ ID NO: 19 negative control]
functional effect of the aptamer: less active

A weaker result is weaker than the reference pair of the same experiment. Where a protein sequence is shown, tags need not be part of it.
